{"source": "the supplement of paper PMC10338343", "note": "± gives the standard deviation. Some of the results follow. Many entries were measured with a wide error."}
{"system": "EfPiwi piRISC loaded with L1MC piRNA (26 nt)", "experiment": "pre-steady-state target cleavage rate (min^-1); guide: L1MC piRNA 5'p-UAACUAAAUACUAUGCAAGCUGUAGG; higher = faster piRNA-guided slicing of the target", "conditions": "auxiliary factor: 500 nM Ephydatia muelleri Gtsf1", "method_in_brief": "(§1)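 The pre-steady-state cleavage rate was calculated from a burst-and-steady-state fit. Data came from Cleave-'n-Seq, in which […] transcribed, DNA-blocked target RNA library was mixed with 1 nM active affinity-purified piRISC carrying one synthetic guide, with or without 500 nM GTSF1 partner protein, in HEPES–potassium acetate buffer at 33 °C for 0–8 or 0–960 min. Uncleaved targets were sequenced and normalised to depth and to weakly complementary targets, three trials were pooled, and k3 was capped at 0.0001 min^-1.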"}
{"sequence": "UCCUGGAUGAGCUUGCAUAGUAAUUUGUUA", "pre-steady-state target cleavage rate": "0.00104 ± 0.0085"}
{"sequence": "UCCUCCUACAGGUUGCAUAGUAUUUAGUAA", "pre-steady-state target cleavage rate": "0.00547 ± 0.0022"}
{"sequence": "UCCUGGUAGUCCUUGCAUAGUAUUUAGUUA", "pre-steady-state target cleavage rate": "0.00556 ± 0.0026"}
{"sequence": "UCCUGGAUGUCGAACGAUACUAUAUAGUUA", "pre-steady-state target cleavage rate": "0.000176 ± 0.028"}
{"sequence": "UCCUGGAUGUCCCUUGCAUAGUAUUUAGUUA", "pre-steady-state target cleavage rate": "0.00608 ± 0.0026"}
{"sequence": "UCCUGGUACAGCUUGCAUAGAAAUUAGUUA", "pre-steady-state target cleavage rate": "0.00112 ± 0.0035"}
{"sequence": "UCCUGGAUGUCGAACGAUAUGUAUUUAGUUA", "pre-steady-state target cleavage rate": "0.000118 ± 0.019"}
{"sequence": "UCCUGGAAGUCCUUGCAUAGUAUUUAGUAA", "pre-steady-state target cleavage rate": "0.00346 ± 0.0028"}
{"sequence": "UCCUCGUUCAGCUUGCAUAGUAUUUAGUUA", "pre-steady-state target cleavage rate": "0.104 ± 0.021"}
{"sequence": "UCCUGGUACACCUUGCAUAGUAUUUACUUA", "pre-steady-state target cleavage rate": "0.000793 ± 0.0064"}
{"sequence": "UCCUGGAUGUCGUUGCAUAGUAUUUUCAAA [g6:g18:cont:t1A]", "pre-steady-state target cleavage rate": "0.00141 ± 0.006"}
{"sequence": "UCCUGGAUGUCGAUCCAUAGUAUUUUGUUA", "pre-steady-state target cleavage rate": "0.00011 ± 0.03"}
{"sequence": "UCCUGGAUCAGCUUGCUAAGUAUUUAGUUA", "pre-steady-state target cleavage rate": "0.00332 ± 0.0037"}
{"sequence": "UCCUGGAUCAGGUUGCAUAGAAUUUAGUUA", "pre-steady-state target cleavage rate": "0.00305 ± 0.0023"}
{"sequence": "UCCUGGAUGUCGAACGAUAGUAUUUAGUAA [g3:g14:cont:t1A]", "pre-steady-state target cleavage rate": "0.000334 ± 0.017"}
{"sequence": "UCCUGGAUGUCGAACGUAAGUAUUUGAGUUA", "pre-steady-state target cleavage rate": "0.000221 ± 0.024"}
{"sequence": "UCCUGGAUGUGCUUGCAAAGUAUAUAGUUA", "pre-steady-state target cleavage rate": "0.000556 ± 0.0089"}
{"sequence": "UCCUGGAUGAGCUUGCUUAGUUUUUAGUUA", "pre-steady-state target cleavage rate": "0.00056 ± 0.013"}
{"sequence": "UCCUGGAUGUCGAACCAUACUAAUUAGUUA", "pre-steady-state target cleavage rate": "< 0.0001"}
{"sequence": "UCCUGGAACAGCUUGCUAAGUAUUUAGUUA", "pre-steady-state target cleavage rate": "0.00374 ± 0.0032"}
{"sequence": "UCCUGGAUCAGCUUGCAUAGUAUUUUGUUA", "pre-steady-state target cleavage rate": "0.0125 ± 0.0042"}
{"sequence": "UCCUGGAUCUGCUUGCAAAGUAUUUAGUUA", "pre-steady-state target cleavage rate": "0.0405 ± 0.011"}
{"sequence": "UCCUCCUACAGUUGCAUAGUAUUUAGUUA", "pre-steady-state target cleavage rate": "0.0777 ± 0.021"}
{"sequence": "UCCUGGAUGUCCUUGCAUAGUAUUUAAGUUA", "pre-steady-state target cleavage rate": "0.0217 ± 0.0093"}
{"sequence": "UCCUGCUAGAGCUAGCAUAGUAUUUAGUUA", "pre-steady-state target cleavage rate": "0.00618 ± 0.0016"}
{"sequence": "UCCUGGAUGUCCUUGCCUAGUAUUUAGUUA", "pre-steady-state target cleavage rate": "0.00345 ± 0.002"}
{"sequence": "UCCUGGUAUCAGCUUGCAUAGUAUUUAGUUA", "pre-steady-state target cleavage rate": "0.0704 ± 0.018"}
{"sequence": "UCCUGCUACAGCUUGCAAAGUAUUUUGUUA", "pre-steady-state target cleavage rate": "0.00625 ± 0.0028"}
{"sequence": "UCCUGGAACAGCUUGCUUACUAUUUAGUUA", "pre-steady-state target cleavage rate": "0.00758 ± 0.0029"}
{"sequence": "UCCUGGAUGAGCUUGCAUAGUAUAUACUUA", "pre-steady-state target cleavage rate": "0.000509 ± 0.01"}
{"sequence": "UCCUGGAUCAGCUUGCAUAGUAUUUAGUAA", "pre-steady-state target cleavage rate": "0.00774 ± 0.0024"}
{"sequence": "UCCUGGAUCAGCUUGCAUAGUAUAUUGUUA", "pre-steady-state target cleavage rate": "0.00175 ± 0.004"}
{"system": "EfPiwi piRISC loaded with L1MC piRNA (26 nt)", "experiment": "pre-steady-state target cleavage rate (min^-1); guide: L1MC piRNA 5'p-UAACUAAAUACUAUGCAAGCUGUAGG; MIWI and MILI are mouse PIWI proteins and EfPiwi is from a freshwater sponge; tags in brackets are library labels; higher = faster piRNA-guided slicing of the target", "conditions": "auxiliary factor: none (no Gtsf1)", "method_in_brief": "as §1"}
{"sequence": "UCCUGGAUGUCGAACGAUAGUAUUUAGAAA [g4:g14:cont:t1A]", "pre-steady-state target cleavage rate": "< 0.0001"}
{"sequence": "UCCUCCUACAGCUUGCAAUGUAUUUAGUUA", "pre-steady-state target cleavage rate": "0.000965 ± 0.0079"}
{"sequence": "UCCUGGUACAGCCUUGCAUAGUAUUUAGUUA", "pre-steady-state target cleavage rate": "0.00039 ± 0.034"}
{"sequence": "UCCUGGAUGUGCUUGCAUAGUAAUUAGUUA", "pre-steady-state target cleavage rate": "0.00115 ± 0.012"}
{"sequence": "UCCUGGAACAGCUUGCAUAGUAAUUUAGUUA", "pre-steady-state target cleavage rate": "0.00107 ± 0.01"}
{"sequence": "UCCUGGAUGACCUUGGAUAGUAUUUAGUUA", "pre-steady-state target cleavage rate": "0.000236 ± 0.037"}
{"sequence": "UCCUGGAUGUCGAACGUAAGAUUUAGUUA", "pre-steady-state target cleavage rate": "< 0.0001"}
{"sequence": "UCCUGGAACAGCUUGCAUUGUAUUUAGUAA", "pre-steady-state target cleavage rate": "0.00105 ± 0.01"}
